In US20050074879A1, “Antisense oligonucleotide modulation of STAT3 expression” (priority 2000, published 2005):
Some of these results come from one statement about several compounds together. Oligonucleotides are written 5' to 3', each unit as a sugar letter and its base; * is a phosphorothioate linkage, no mark a phosphodiester; rarer units and linkages stand in square brackets, end groups in braces. Plain capitals give the bases only. e = 2'-O-(2-methoxyethyl) (MOE); [5mC] = 5-methylcytosine; d = 2'-deoxy (DNA)

The substances below were run on Human STAT3 mRNA (assay: Inhibition of human STAT3 mRNA levels in A549 cells, 75 nM, real-time PCR (Table 13)). Settings: relative to untreated control cells.
Assay type: cell-based
Method: Oligonucleotide activity is assayed by quantitation of STAT3 mRNA levels by real-time PCR (RT-PCR) using the ABI PRISMS 7700 Sequence Detection System (PE-Applied Biosystems, Foster City, Calif.) according to manufacturer's instructions. This is a closed-tube, non-gel-based, fluorescence detection system which allows high-throughput quantitation of polymerase chain reaction (PCR) products in real-time. As opposed to standard PCR, in which amplification products are quantitated after the PCR is completed, products in RT-PCR are quantitated as they accumulate. This is accomplished by including in the PCR reaction an oligonucleotide probe that anneals specifically between the forward and reverse PCR primers, and contains two fluorescent dyes. A reporter dye (e.g., JOE or FAM, PE-Applied Biosystems, Foster City, Calif.) is attached to the 5′ end of the probe and a quencher dye (e.g., TAMRA, PE-Applied Biosystems, Foster City, Calif.) is attached to the 3′ end of the probe. When the probe and dyes are intact, reporter dye emission is quenched by the proximity of the 3′ quencher dye. During amplification, annealing of the probe to the target sequence creates a substrate that can be cleaved by the 5′-exonuclease activity of Taq polymerase. […] With each cycle, additional reporter dye molecules are cleaved from their respective probes, and the fluorescence intensity is monitored at regular (six-second) intervals by laser optics built into the ABI PRISM™ 7700 Sequence Detection System. In each assay, a series of parallel reactions containing serial dilutions of mRNA from untreated control samples generates a standard curve that is used to quantitate the percent inhibition after antisense oligonucleotide treatment of test samples.
RT-PCR reagents are obtained from PE-Applied Biosystems, Foster City, Calif. RT-PCR reactions are carried out by adding 25 l PCR cocktail (1× TAQMAN7 buffer A, 5.5 mM MgCl2, 300 µM each of DATP, dCTP and dGTP, 600 µM of dUTP, 100 nM each of forward primer, reverse primer, and probe, 20 U RNAse inhibitor, 1.25 units AMPLITAQ GOLD7, and 12.5 U MuLV reverse transcriptase) to 96 well plates containing 25 l poly(A) mRNA solution. The RT reaction is carried out by incubation for 30 minutes at 48° C. following a 10 minute incubation at 95° C. to activate the AMPLITAQ GOLD7, 40 cycles of a two-step PCR protocol are carried out: 95° C. for 15 seconds (denaturation) followed by 60° C. for 1.5 minutes (annealing/extension).
The compounds were analyzed for their effect on STAT3 mRNA levels in A549 cells. The human lung carcinoma cell line A549 was obtained from the American Type Culture Collection (ATCC) (Manassas, Va.). A549 cells were routinely cultured in DMEM basal media (Invitrogen Corporation, Carlsbad, Calif.) supplemented with 10% fetal calf serum (Invitrogen Corporation, Carlsbad, Calif.), 100 units/mL penicillin, and 100 ug/mL streptomycin (Invitrogen Corporation, Carlsbad, Calif.). Cells were routinely passaged by trypsinization and dilution when they reached 90% confluence.
When cells reached 65-75% confluency, they were treated with oligonucleotide. For cells grown in 96-well plates, wells were washed once with […] OPTI-MEM-1 reduced-serum medium (Invitrogen Corporation, Carlsbad, Calif.) and then treated with 130 µL of OPTI-MEM-1 containing […] LIPOFECTIN (Invitrogen Corporation, Carlsbad, Calif.) and 75 nM of the compounds in Table 13. Cells were treated and data were obtained in duplicate. Untreated cells served as controls. After 4-7 hours of treatment at 37° C., the medium was replaced with fresh medium. Cells were harvested 16-24 hours after oligonucleotide treatment. STAT3 mRNA levels in A549 cells were quantitated by real-time PCR as described by other methods herein.
Probes and primers to human STAT3 were designed to hybridize to a human STAT3 sequence, using published sequence information (incorporated herein as SEQ ID NO: 1). For STAT 3 the PCR primers were: • forward primer: […]

Inhibited human STAT3 expression, at least 60%:
SEQ ID NO 170: Table 13 2′-MOE gapmer targeted to human STAT3 (antisense eG*eA*eA*eG*eG*dG*d[5mC]*d[5mC]*dT*d[5mC]*dT*d[5mC]*d[5mC]*dG*dA*eG*e[5mC]*e[5mC]*eG*eA)
SEQ ID NO 204: Table 13 2′-MOE gapmer targeted to human STAT3 (antisense eG*eA*eG*e[5mC]*eA*dT*d[5mC]*dT*dG*dT*dT*d[5mC]*d[5mC]*dA*dG*e[5mC]*eT*eG*e[5mC]*eT)
SEQ ID NO 281: Table 13 2′-MOE gapmer targeted to human STAT3 (antisense eA*eA*eA*eG*eT*dG*d[5mC]*d[5mC]*d[5mC]*dA*dG*dA*dT*dT*dG*e[5mC]*eT*e[5mC]*eA*eA)
SEQ ID NO 208: Table 13 2′-MOE gapmer targeted to human STAT3 (antisense e[5mC]*eT*e[5mC]*eT*eT*d[5mC]*d[5mC]*dA*dG*dT*d[5mC]*dA*dG*d[5mC]*d[5mC]*eA*eG*e[5mC]*eT*e[5mC])
SEQ ID NO 200: Table 13 2′-MOE gapmer targeted to human STAT3 (antisense eA*eT*eT*e[5mC]*eA*dG*dA*dT*d[5mC]*dT*dT*dG*d[5mC]*dA*dT*eG*eT*e[5mC]*eT*e[5mC])
SEQ ID NO 265: Table 13 2′-MOE gapmer targeted to human STAT3 (antisense e[5mC]*eT*eA*e[5mC]*e[5mC]*dT*dG*dG*dG*dT*d[5mC]*dA*dG*d[5mC]*dT*eT*e[5mC]*eA*eG*eG)
SEQ ID NO 175: Table 13 2′-MOE gapmer targeted to human STAT3 (antisense eT*eG*eT*e[5mC]*eA*dA*dG*d[5mC]*dT*dG*d[5mC]*dT*dG*dT*dA*eG*e[5mC]*eT*eG*eA)
SEQ ID NO 298: Table 13 2′-MOE gapmer targeted to human STAT3 (eA*eT*eA*e[5mC]*eA*dG*dA*dA*dA*dG*dG*d[5mC]*dT*dA*dT*eG*e[5mC]*eT*eG*eA)
SEQ ID NO 161: Table 13 2′-MOE gapmer targeted to human STAT3 (antisense eT*eT*eT*eT*eG*d[5mC]*dA*dT*dG*dA*dT*dG*dT*dA*dA*e[5mC]*e[5mC]*eA*e[5mC]*eT)
SEQ ID NO 215: Table 13 2′-MOE gapmer targeted to human STAT3 (antisense eA*eG*eG*e[5mC]*eA*d[5mC]*dT*dT*dT*dT*d[5mC]*dA*dT*dT*dA*eA*eG*eT*eT*eT)
SEQ ID NO 171: Table 13 2′-MOE gapmer targeted to human STAT3 (antisense eG*eG*e[5mC]*eG*eG*d[5mC]*dG*dA*dG*dG*d[5mC]*dT*d[5mC]*d[5mC]*d[5mC]*eT*e[5mC]*eA*eG*eG)
SEQ ID NO 295: Table 13 2′-MOE gapmer targeted to human STAT3 (eT*eT*eA*eA*eA*dA*dA*dG*dT*dG*d[5mC]*dA*dA*dT*dG*e[5mC]*e[5mC]*eA*eG*eG)
SEQ ID NO 177: Table 13 2′-MOE gapmer targeted to human STAT3 (antisense eT*e[5mC]*eT*eT*eG*dA*d[5mC]*dT*d[5mC]*dT*d[5mC]*dA*dA*dT*d[5mC]*e[5mC]*eA*eA*eG*eG)
SEQ ID NO 277: Table 13 2′-MOE gapmer targeted to human STAT3 (antisense eA*eA*e[5mC]*eT*eG*d[5mC]*d[5mC]*d[5mC]*dT*d[5mC]*d[5mC]*dT*dG*d[5mC]*dT*eG*eA*eG*eG*eG)
SEQ ID NO 205: Table 13 2′-MOE gapmer targeted to human STAT3 (antisense e[5mC]*eT*eT*e[5mC]*eT*d[5mC]*d[5mC]*dG*d[5mC]*dA*dT*d[5mC]*dT*dG*dG*eT*e[5mC]*e[5mC]*eA*eG)
SEQ ID NO 270: Table 13 2′-MOE gapmer targeted to human STAT3 (antisense eA*eT*eG*eG*eT*dA*dT*dT*dG*d[5mC]*dT*dG*d[5mC]*dA*dG*eG*eT*e[5mC]*eG*eT)
SEQ ID NO 166: Table 13 2′-MOE gapmer targeted to human STAT3 (antisense e[5mC]*eT*eG*eA*eA*d[5mC]*dT*dT*dA*d[5mC]*d[5mC]*d[5mC]*dT*d[5mC]*dT*eG*eA*eG*eA*eG)
SEQ ID NO 210: Table 13 2′-MOE gapmer targeted to human STAT3 (antisense e[5mC]*e[5mC]*eA*eG*eT*dT*dT*dT*d[5mC]*dT*dA*dG*d[5mC]*d[5mC]*dG*eA*eT*e[5mC]*eT*eA)
SEQ ID NO 212: Table 13 2′-MOE gapmer targeted to human STAT3 (antisense eA*eG*eT*eT*eG*dA*dG*dA*dT*dT*d[5mC]*dT*dG*d[5mC]*dT*eA*eA*eT*eG*eA)
SEQ ID NO 206: Table 13 2′-MOE gapmer targeted to human STAT3 (antisense eT*eT*e[5mC]*eT*eG*d[5mC]*dA*d[5mC]*dG*dT*dA*d[5mC]*dT*d[5mC]*d[5mC]*eA*eT*e[5mC]*eG*e[5mC])
SEQ ID NO 181: Table 13 2′-MOE gapmer targeted to human STAT3 (antisense eA*eG*eA*eA*eA*d[5mC]*dT*dG*d[5mC]*dT*dT*dG*dA*dT*dT*e[5mC]*eT*eT*e[5mC]*eG)
SEQ ID NO 259: Table 13 2′-MOE gapmer targeted to human STAT3 (antisense eG*eG*eT*eA*eG*d[5mC]*dA*dT*d[5mC]*d[5mC]*dA*dT*dG*dA*dT*e[5mC]*eT*eT*eA*eT)
SEQ ID NO 252: Table 13 2′-MOE gapmer targeted to human STAT3 (antisense eA*eT*eG*eA*e[5mC]*dA*dT*dG*dT*dT*dG*dT*dT*d[5mC]*dA*eG*e[5mC]*eT*eG*e[5mC])
SEQ ID NO 249: Table 13 2′-MOE gapmer targeted to human STAT3 (antisense eT*e[5mC]*e[5mC]*eA*eG*d[5mC]*d[5mC]*dA*dG*dA*d[5mC]*d[5mC]*d[5mC]*dA*dG*eA*eA*eG*eG*eA)
SEQ ID NO 258: Table 13 2′-MOE gapmer targeted to human STAT3 (antisense eA*eT*e[5mC]*e[5mC]*eA*dT*dG*dA*dT*d[5mC]*dT*dT*dA*dT*dA*eG*e[5mC]*e[5mC]*e[5mC]*eA)
SEQ ID NO 222: Table 13 2′-MOE gapmer targeted to human STAT3 (antisense e[5mC]*e[5mC]*e[5mC]*eA*eG*dA*dA*dT*dG*dT*dT*dA*dA*dA*dT*eT*eT*e[5mC]*e[5mC]*eG)
SEQ ID NO 267: Table 13 2′-MOE gapmer targeted to human STAT3 (antisense eG*eT*e[5mC]*eG*eT*dT*dG*dG*dT*dG*dT*d[5mC]*dA*d[5mC]*dA*e[5mC]*eA*eG*eA*eT)
